{"source": "patent US20030121063", "molecular_target": "L1 ENp (L1 ORF2 endonuclease domain) (Homo sapiens) (UniProt O00370)", "experiment": "enzyme reaction in vitro", "conditions": "purified recombinant protein, protein details: His6 (pET15b, E. coli BL21(DE3))", "note": "Construct, isoform or probe ends are uncertain for at least one entry. The comparison behind a weaker result is the experiment's own reference, which may not be listed here."}
{"sequence": "AAAAAAAGGATCTCAAGAAGATCCTTTGATCTTTTCTACGGGGTCTGACGCTCAGTGGAACGAAAACTCACGTTAAGGGATTTTGGTCATGAGATTATCAAAAAGGATCTTCACCTAGATCCTTTTAAATTAAAAATGAAGTTTTAAATCAATCTAAAGTATAT (double strand) [pBS plasmid cleavage hotspot region]", "values": [{"measurement": "activity on this sequence", "setting": "preferred nicking sites mapped by primer extension, 5 mM MgCl2, 50 mM KCl, pH 7.6, 37 C", "result": "active"}]}
{"sequence": "AAAAAAAGGATCTCAAGAAGATCCTTTGATCTTTTCTACGGGGTCTGACGCTCAGTGGAACGAAAACTCACGTTAAGGGATTTTGGTCATGAGATTATCAAAAAGGATCTTCACCTAGATCCTTTTAAATTAAAAATGAAGTTTTAAATCAATCTAAAGTATAT [relaxed closed circular pBS]", "values": [{"measurement": "activity on this sequence", "setting": "four times more enzyme needed than for supercoiled, same cleavage specificity, variant of pBS plasmid cleavage hotspot region", "result": "less active"}]}
{"sequence": "GAGGCCTAAAATTCCAACCGAAAATCGCGAGGTTACTTTTTTGGAGCCCGAAAACCACCCAAAATCAAGGAAAAATGGCCAAAAAATGCCAAAAAATAGCGAAAATACCCCGAAAATTGGCAAAAATTAACAAAAAATAGCGAATTTCCCTGAATTTTAGGCGAAAAAACCCCCGAAAATGGCCAAAAACGCACTGAAAATCAAAATCTGAACGTCTACG (double strand) [K-DNA bent fragment in pPK201/CAT]", "values": [{"measurement": "activity on this sequence", "setting": "hotspot in subset of oligo A tracts, used about equally with the pBS hotspot", "result": "active"}]}
